One substance from publication PMC6163214, “Etoposide-Induced Apoptosis in Cancer Cells Can Be Reinforced by an Uncoupled Link between Hsp70 and Caspase-3” (International Journal of Molecular Sciences, 2018) can be followed below.

Protein sequences, listed by entry. Tags and fused reporters are not part of them.
UniProt P0DMV8: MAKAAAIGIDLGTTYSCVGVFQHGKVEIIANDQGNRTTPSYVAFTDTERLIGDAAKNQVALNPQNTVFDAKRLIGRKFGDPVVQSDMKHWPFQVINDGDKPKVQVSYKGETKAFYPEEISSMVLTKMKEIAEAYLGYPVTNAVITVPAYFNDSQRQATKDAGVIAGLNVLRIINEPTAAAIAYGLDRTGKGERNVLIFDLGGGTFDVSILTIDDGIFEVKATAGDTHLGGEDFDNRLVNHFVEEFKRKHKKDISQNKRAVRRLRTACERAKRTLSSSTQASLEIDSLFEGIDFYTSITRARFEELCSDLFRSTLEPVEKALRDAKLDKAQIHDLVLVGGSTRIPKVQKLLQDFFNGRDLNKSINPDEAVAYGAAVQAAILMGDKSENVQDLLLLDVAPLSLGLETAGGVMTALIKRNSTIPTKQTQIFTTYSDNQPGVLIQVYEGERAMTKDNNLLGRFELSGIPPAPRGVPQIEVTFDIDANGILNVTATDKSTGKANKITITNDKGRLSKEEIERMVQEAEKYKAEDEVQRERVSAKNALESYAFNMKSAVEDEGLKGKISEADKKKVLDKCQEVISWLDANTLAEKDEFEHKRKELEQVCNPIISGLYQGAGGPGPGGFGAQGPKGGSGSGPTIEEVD

This assay deals with T1, Carboxy-methylated α-lactalbumin (UniProt P00711).
T1 sequence (chain, carboxy-methylated (residues not stated)): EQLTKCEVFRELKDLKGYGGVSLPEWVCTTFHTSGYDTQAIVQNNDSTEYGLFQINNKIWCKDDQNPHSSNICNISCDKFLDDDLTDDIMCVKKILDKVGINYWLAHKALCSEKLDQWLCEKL
Briefly: ELISA; substrate-binding enzyme immunoassay: CMLA immobilised on wells of an EIA plate; recombinant Hsp70 100 ng/mL in 20 mM Tris HCl, 20 mM NaCl, 10 mM MgCl2, pH 7.5, with or without BT44 or MKT-077; bound Hsp70 detected with anti-Hsp70 polyclonal antibody; both purified. (ELISA stands for enzyme-linked immunosorbent assay.)

These are yes or no findings as the source states them, for the method shown. Some entries that bind do so weakly or less than the wild type.

With “Recombinant human Hsp70 (from UniProt P0DMV8 1-641)”, the binding entry is reported as “binds”.
